From publication PMC8447655
No constants are given. Whether binding was seen depends on the method and setting. In cells and extracts the contact can be indirect. Some results given as binding are weak or reduced against the parent protein; the word gives no strength. Sequences can lack the tags named with a protein.

Chains of the proteins cited; added tags and fusions are not shown.
UniProt P11387: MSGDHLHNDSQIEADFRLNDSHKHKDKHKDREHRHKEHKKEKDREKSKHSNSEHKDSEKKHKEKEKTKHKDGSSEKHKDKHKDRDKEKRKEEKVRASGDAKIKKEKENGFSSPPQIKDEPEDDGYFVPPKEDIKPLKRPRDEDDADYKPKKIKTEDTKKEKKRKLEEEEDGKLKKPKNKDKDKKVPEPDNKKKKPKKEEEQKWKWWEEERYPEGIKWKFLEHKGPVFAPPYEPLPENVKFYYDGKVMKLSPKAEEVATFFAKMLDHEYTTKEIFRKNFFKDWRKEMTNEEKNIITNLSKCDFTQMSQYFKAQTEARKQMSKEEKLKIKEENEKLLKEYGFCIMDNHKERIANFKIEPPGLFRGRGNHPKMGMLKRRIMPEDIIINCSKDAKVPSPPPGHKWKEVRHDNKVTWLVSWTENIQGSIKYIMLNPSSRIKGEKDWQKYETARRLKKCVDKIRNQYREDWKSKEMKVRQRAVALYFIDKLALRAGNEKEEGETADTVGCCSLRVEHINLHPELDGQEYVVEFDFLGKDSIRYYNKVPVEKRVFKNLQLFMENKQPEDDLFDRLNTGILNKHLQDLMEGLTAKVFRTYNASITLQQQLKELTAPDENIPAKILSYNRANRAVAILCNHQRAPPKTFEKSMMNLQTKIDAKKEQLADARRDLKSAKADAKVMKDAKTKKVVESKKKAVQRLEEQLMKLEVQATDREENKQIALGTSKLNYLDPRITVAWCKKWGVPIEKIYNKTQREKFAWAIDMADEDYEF

Molecular target: T1, Glutathione-S-transferases-theta1 (GSTT1) (human (endogenous in SOC cell lines HO8910 / SKOV3)) (UniProt P30711)
T1 sequence: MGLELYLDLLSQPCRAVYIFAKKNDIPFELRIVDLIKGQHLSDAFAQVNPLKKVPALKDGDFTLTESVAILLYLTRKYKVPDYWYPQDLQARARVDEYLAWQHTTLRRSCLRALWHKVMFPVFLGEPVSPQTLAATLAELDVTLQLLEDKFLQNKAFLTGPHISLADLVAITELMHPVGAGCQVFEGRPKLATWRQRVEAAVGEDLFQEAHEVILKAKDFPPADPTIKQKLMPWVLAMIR
Experiment: co-IP; 1 mg of total protein immunoprecipitated with anti-GSTT1 or anti-Topo I (1:40) in lysis buffer for 12 h, protein A and G beads, SDS-PAGE; endogenous proteins

- binding: binds
Substance: DNA topoisomerase 1 (Topo I) (from UniProt P11387 1-765)
